Assay results as given in PubChem BioAssay AID2517 (National Center for Advancing Translational Sciences (NCATS), 2010).
The whole screen tested about 350,000 compounds, of which about 1,200 (0.34%) were called active. This list was built around the results that the source calls inconclusive (neither active nor inactive); the mix of calls is not that of the screen. Calls come from the whole dose curve; as a rule, active = well fitted inhibition curve with a large enough effect; inconclusive = small, poorly fitted or top-dose-only effect; inactive = no such curve, though single readings can be large or run the other way. Potencies beside an inconclusive call are fits to weak or partial responses and may not hold up.

Amino acid sequences for entries named in this document (tags omitted).
UniProt P27695, whole entry, looked up: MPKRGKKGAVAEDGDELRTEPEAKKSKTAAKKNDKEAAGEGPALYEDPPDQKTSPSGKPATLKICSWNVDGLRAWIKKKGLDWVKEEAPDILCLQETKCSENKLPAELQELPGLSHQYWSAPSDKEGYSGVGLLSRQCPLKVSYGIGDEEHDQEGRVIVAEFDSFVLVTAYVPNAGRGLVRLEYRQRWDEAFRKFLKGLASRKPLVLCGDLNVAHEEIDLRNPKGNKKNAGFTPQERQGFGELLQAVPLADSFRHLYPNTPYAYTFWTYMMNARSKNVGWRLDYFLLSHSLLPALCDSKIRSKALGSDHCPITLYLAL

Molecular target: DNA repair nuclease/redox regulator APEX1 (Homo sapiens) (UniProt P27695)
Assay: qHTS Assay for Inhibitors of the Human Apurinic/apyrimidinic Endonuclease 1 (APE1); note: nearly all actives have a fitted effect of over 55% in size;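 for activity change, negative = inhibition: plate controls were vehicle for no effect and reference inhibitor for full effect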
Conditions: recombinant APE1, TAMRA/BHQ-2 abasic DNA cleavage fluorescence; activity change, negative = inhibition: at 65.8 µM (top of the series)
In short: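 Kinetic fluorescence read (525 ex/598 em nm, three reads 60 s apart) of AP-site incision; signal = third minus first read. Enzyme 0.75 nM, dual-labelled THF duplex 50 nM, compound preincubation 15 min RT.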
Potency is the fitted concentration of half-maximal effect.

| Compound | Potency | activity change, negative = inhibition |
| --- | --- | --- |
| O=C(N/N=C/c1ccc2c(c1)OCO2)c1cc(-c2ccccc2)nc2ccccc12 | inconclusive: 0.005 µM [inhibitor, full curve, poor fit] | – |
| CN1C(=O)CC(Nc2cccc3cccc(N)c23)C1=O (configuration not stated) | inconclusive: 2.82 µM [inhibitor, partial curve] | – |
| Fc1ccccc1COc1ccc(Br)cc1CNCc1ccncc1 | inconclusive: 0.0355 µM [inhibitor, full curve, poor fit] | – |
| COCCCNC(=O)c1ccc(Cn2c(=O)c3ccccc3n(Cc3cc(C)ccc3C)c2=O)cc1 | inconclusive: 31.6 µM [inhibitor, single point] | – |
| COc1ccc(N(CC(=O)N/N=C/c2ccco2)S(=O)(=O)c2ccccc2)cc1 | inconclusive: 0.0282 µM [inhibitor, full curve, poor fit] | – |
| COc1ccc(NC(=O)c2ccc(CNS(=O)(=O)c3cccc(OC)c3)cc2)cc1 | inactive | – |
| COC(=O)c1c(N)c(C#N)c(C)n1-c1ccccc1 | inconclusive: 44.7 µM [inhibitor, single point] | – |
| Cc1csc2ncc(C(=O)Nc3ccon3)c(=O)n12 | inconclusive: 39.8 µM [inhibitor, single point] | – |
| CCCCCNC(=O)c1ccc2c(=O)[nH]c3c(C(=O)NCC4CCCO4)sc(=S)n3c2c1 (configuration not stated) | inconclusive: 22.4 µM [inhibitor, single point] | – |
| CC1(C)Cc2nc3sc4c(=O)n(Cc5ccccc5)cnc4c3cc2CS1 | inconclusive: 0.0112 µM [inhibitor, full curve, poor fit] | – |
| CN(C)c1ccc(C(CNS(=O)(=O)c2ccc(F)c(F)c2)c2c[nH]c3ccccc23)cc1 (configuration not stated) | inconclusive: 8.91 µM [inhibitor, partial curve, poor fit] | – |
| O=C(COC(=O)c1ccc(Cl)c(S(=O)(=O)N2CCCCC2)c1)NCc1ccco1 | inconclusive: 31.6 µM [inhibitor, single point] | – |
| COc1ccccc1/C=C\C(=O)NCC(=O)N/N=C/c1cccc(OC)c1O | inactive | – |
| O=C(CSc1ccc2nnc(-c3ccncc3)n2n1)NCc1ccco1 | inconclusive: 0.631 µM [inhibitor, single point] | – |
| CSc1ccc(/C=C/c2ccc3cccc(O)c3n2)cc1 | inconclusive: 1.41 µM [inhibitor, full curve, poor fit] | – |
| Cn1cccc1C(C(=O)NC1CCCCC1)N(C(=O)Cc1cccs1)C1CC1 (configuration not stated) | inactive | – |
| O=C(O)c1cccc(-c2ccc(/C=N/n3cnc4sc5c(c4c3=O)CCCC5)o2)c1 | inconclusive: 35.5 µM [inhibitor, single point] | – |
| COc1ccc2nc(C)cc(N/N=C/c3ccccc3)c2c1 | inactive | – |
| CSc1ccc(/C=N/Nc2cccc(C(=O)O)c2)cc1 | active: 2.24 µM | – |
| O=C(CC1c2ccccc2Oc2ccccc21)Nc1ccccc1F | inactive | – |
| CNc1c(C(=O)O)ccc2c1C(=O)c1ccccc1C2=O | inconclusive: 4.47 µM [inhibitor, partial curve, poor fit] | – |

Complete entries, quoted from the list. Values in the order: Potency | activity change, negative = inhibition
Fc1ccccc1COc1ccc(Br)cc1CNCc1ccncc1 as listed: inconclusive: 0.0355 µM [inhibitor, full curve, poor fit] | –
O=C(CC1c2ccccc2Oc2ccccc21)Nc1ccccc1F as listed: inactive | –

Additional records

| Compound | Potency | activity change, negative = inhibition |
| --- | --- | --- |
| COC(=O)[C@H](C)[C@H](CC(C)C)NC(=O)[C@H](C)[C@H](CC(C)C)NC(=O)c1ccccn1 | inactive | – |
| COc1ccc(/C=N/NC(=O)c2ccc(Br)o2)cc1Cn1cc([N+](=O)[O-])cn1 | inactive | – |
| COCCN1C(=O)N[C@@H](c2ccc(Br)cc2)C(C(=O)OC)=C1C | inconclusive: 35.5 µM [inhibitor, single point] | – |
| Cc1cc(=O)c2cc3nc(-c4cccnc4)oc3c(Br)c2o1 | inconclusive: 21.2 µM [inhibitor, partial curve] | – |
| Cc1nn(-c2ccccc2)c(C)c1/C=N/NC(=O)c1ccccc1NS(=O)(=O)c1cccs1 | inconclusive: 7.94 µM [inhibitor, partial curve] | – |
| COc1cc2c(cc1OC)CN(CCC(=O)c1ccc(Br)cc1)CC2 | inconclusive: 35.5 µM [inhibitor, partial curve, poor fit] | – |
| CN(c1cnn(-c2ccccc2)c(=O)c1Cl)n1cccc1 | inconclusive: 7.94 µM [inhibitor, single point] | – |
| NC(=O)C1CCN(C(=O)CSc2ccsc2[N+](=O)[O-])CC1 | inconclusive: 39.8 µM [inhibitor, single point] | – |
| Cc1ccc(Cl)cc1NC(=O)CSc1sc2c(O)cc(=O)[nH]c2c1C#N | – | inactive: 15.7% [at 12.4 µM] |
| Cc1occc1-c1nc(-c2ccncc2)no1 | inconclusive: 0.355 µM [inhibitor, partial curve] | – |
| CCOC(=O)N1CCC2(CC1)C(C#N)=C(N)Oc1c2sc2nc(C)cc(C)c12 | inconclusive: 7.94 µM [inhibitor, single point] | – |
| C=C(C)C(O)/C=C/C=C/c1ccccc1 (configuration not stated) | inconclusive: 4.47 µM [inhibitor, single point] | – |
| O=C(CSc1nc2ccccc2o1)N1CCN(c2ccccc2)CC1 | inconclusive: 44.7 µM [inhibitor, single point] | – |
| O=C(NCc1cccc(Cl)c1)c1ccc2c(c1)SC1=NS(=O)(=O)CCN12 | inconclusive: 22.4 µM [inhibitor, single point] | – |
| Cc1ccc(OCc2ccoc2C(=O)O)cc1C | inconclusive: 17.8 µM [inhibitor, partial curve] | – |
| CCN(Cc1ccccc1)C(=O)c1cc2c(=O)oc3ccc(C)cc3c2s1 | inconclusive: 0.0794 µM [inhibitor, full curve, poor fit] | – |
| CCCCN(C(=O)c1cc(-c2ccco2)nc2ccccc12)c1c(N)n(CCC)c(=O)[nH]c1=O | inconclusive: 21.2 µM [inhibitor, single point] | – |
| CCOc1ccccc1-c1nnc2n1N=C(c1cccc(OC)c1)CS2 | inactive | – |
| COC(=O)C1=CN(Cc2cccs2)C=C(C(=O)OC)C1c1ccc(OC)cc1OC | inconclusive: 7.08 µM [inhibitor, full curve] | – |
| COc1cc(NC(=O)CSc2nc3ccccc3cc2C)c(C(=O)O)cc1OC | inactive | – |
| CC(=O)Nc1ccc2nc(NC(=O)c3ccc([N+](=O)[O-])s3)sc2c1 | inconclusive: 39.8 µM [inhibitor, single point] | – |
